## Library screen at single concentrations

Protein sequences, listed by entry. Tags and fused reporters are not part of them. Residues count along the entry.
UniProt P9WPC5, whole entry: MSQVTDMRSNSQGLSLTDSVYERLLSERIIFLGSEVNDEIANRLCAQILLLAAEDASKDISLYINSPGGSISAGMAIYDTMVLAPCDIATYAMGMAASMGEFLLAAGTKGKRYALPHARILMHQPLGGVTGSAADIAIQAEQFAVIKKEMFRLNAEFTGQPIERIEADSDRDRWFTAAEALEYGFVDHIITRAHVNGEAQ
UniProt P9WPC3, whole entry partner: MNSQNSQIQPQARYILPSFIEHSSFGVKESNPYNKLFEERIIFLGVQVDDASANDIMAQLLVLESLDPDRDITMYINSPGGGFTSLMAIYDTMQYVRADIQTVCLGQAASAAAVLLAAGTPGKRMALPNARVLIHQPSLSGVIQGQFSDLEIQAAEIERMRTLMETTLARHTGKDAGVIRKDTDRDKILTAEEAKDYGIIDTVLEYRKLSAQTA
UniProt Q8IDJ8, 1-583: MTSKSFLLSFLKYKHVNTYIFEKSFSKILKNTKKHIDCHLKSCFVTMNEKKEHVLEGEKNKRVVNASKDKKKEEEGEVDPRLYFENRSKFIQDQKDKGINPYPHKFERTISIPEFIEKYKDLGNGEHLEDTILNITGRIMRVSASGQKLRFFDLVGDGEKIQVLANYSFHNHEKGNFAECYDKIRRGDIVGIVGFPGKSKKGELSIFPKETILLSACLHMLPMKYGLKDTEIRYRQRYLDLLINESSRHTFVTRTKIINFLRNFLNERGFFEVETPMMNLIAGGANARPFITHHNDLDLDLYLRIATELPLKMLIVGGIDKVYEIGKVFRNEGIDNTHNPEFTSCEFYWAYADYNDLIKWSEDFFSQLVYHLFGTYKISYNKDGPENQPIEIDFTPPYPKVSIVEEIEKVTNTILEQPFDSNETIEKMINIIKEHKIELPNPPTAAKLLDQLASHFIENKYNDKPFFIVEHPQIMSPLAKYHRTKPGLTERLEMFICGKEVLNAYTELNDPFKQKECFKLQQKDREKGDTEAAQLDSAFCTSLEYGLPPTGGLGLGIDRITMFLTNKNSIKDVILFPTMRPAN
UniProt P9WFT3, whole entry: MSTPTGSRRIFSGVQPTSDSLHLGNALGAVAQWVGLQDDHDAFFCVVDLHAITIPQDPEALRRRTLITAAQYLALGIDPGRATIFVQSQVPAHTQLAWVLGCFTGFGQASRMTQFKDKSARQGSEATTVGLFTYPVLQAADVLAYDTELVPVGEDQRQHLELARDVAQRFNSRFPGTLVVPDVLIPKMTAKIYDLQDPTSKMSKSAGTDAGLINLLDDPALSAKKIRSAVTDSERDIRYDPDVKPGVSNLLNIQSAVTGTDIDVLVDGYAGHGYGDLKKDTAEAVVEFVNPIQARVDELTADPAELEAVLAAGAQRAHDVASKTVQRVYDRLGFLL
UniProt A4I591, 1-473: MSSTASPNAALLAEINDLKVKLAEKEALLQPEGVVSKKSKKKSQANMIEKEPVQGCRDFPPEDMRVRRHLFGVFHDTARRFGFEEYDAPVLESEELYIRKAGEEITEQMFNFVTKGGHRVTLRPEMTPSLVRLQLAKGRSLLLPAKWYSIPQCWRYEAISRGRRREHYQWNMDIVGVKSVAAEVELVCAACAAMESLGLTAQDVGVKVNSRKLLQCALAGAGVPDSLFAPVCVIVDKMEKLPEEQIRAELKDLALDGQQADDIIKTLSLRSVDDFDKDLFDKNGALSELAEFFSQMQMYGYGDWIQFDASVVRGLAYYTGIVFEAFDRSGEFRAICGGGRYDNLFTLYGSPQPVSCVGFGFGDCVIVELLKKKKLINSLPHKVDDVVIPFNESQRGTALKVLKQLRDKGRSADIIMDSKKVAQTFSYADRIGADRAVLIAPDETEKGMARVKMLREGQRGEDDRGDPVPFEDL
UniProt Q4DA54, 1-478: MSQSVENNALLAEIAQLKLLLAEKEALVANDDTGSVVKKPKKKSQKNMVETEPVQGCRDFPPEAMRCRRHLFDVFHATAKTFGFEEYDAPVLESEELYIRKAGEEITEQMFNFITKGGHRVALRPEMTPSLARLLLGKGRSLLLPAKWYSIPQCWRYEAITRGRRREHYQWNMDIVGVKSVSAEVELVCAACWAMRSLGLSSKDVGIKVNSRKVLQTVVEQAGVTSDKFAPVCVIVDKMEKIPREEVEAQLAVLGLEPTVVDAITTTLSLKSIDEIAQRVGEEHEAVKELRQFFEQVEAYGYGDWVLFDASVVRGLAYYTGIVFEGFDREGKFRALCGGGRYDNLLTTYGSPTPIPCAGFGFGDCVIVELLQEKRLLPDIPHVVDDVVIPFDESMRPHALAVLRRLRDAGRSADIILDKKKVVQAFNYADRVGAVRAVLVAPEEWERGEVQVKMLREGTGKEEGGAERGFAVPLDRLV

The values are deposited in ChEMBL (CHEMBL3988442, “University of Dundee, Small-Polar-MMV Screening Library” (2021)).

ClpP1P2: 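Protease assay of ClpP1P2, read by the AMC dye that it sets free. Target: ClpP1P2, Mycobacterium tuberculosis (UniProt P9WPC5 and UniProt P9WPC3). Tested at 50 µM. Direction is inferred from only a few compounds that gave an IC50; most scored high, so higher reads as stronger inhibition. Most other retested compounds had strongly negative values. Size under these conditions: about 69,000 compounds, about 10 of them at 50% or above in at least one test.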
PfKRS1: 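Enzyme assay of the cytosolic lysyl-tRNA synthetase in 384-well plates, read by luminescence. Target: Lysine-tRNA ligase, Plasmodium falciparum 3D7 (UniProt Q8IDJ8). Compounds at 30 µM. Higher reads as stronger inhibition, judged from the few compounds that gave an IC50. About 69,000 compounds were tested under these conditions; 0.071% (about 49) showed 50% or more at least once.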
MtTrpRS: 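Tryptophan-tRNA ligase, Mycobacterium tuberculosis (UniProt P9WFT3). Enzyme assay of tryptophanyl-tRNA synthetase; the read-out is not stated. Tested at 10 µM. Direction is not recorded; retested compounds ran higher, which suggests that high means inhibition. Size under these conditions: about 65,000 compounds, about 64 of them at 50% or above in at least one test.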
LiHisRS: 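Enzyme assay of histidyl-tRNA synthetase; the read-out is not stated. Target: Histidine-tRNA ligase, Leishmania infantum (UniProt A4I591). Concentration: 30 µM. Direction is inferred from retests: higher values go with stronger inhibition. The assay is labelled LdHisRS but filed under L. infantum. Size under these conditions: about 69,000 compounds, about 410 of them at 50% or above in at least one test.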
TcHisRS: 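Histidine-tRNA ligase, Trypanosoma cruzi CL Brener (UniProt Q4DA54). Enzyme assay of histidyl-tRNA synthetase; the read-out is not stated. Tested at 30 µM. Higher reads as stronger inhibition (inferred: compounds with an IC50 in retests scored well above the rest). About 69,000 compounds were tested under these conditions; 0.045% (about 31) showed 50% or more at least once.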
Leishmania in macrophages: 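Cell assay of Leishmania donovani living inside macrophages; the read-out is not stated. Concentration: 30 µM. Higher reads as stronger inhibition (inferred: compounds with an IC50 in retests scored well above the rest). Size under these conditions: about 69,000 compounds, about 1,000 of them at 50% or above in at least one test.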

Each number is a percent effect as filed.
The controls that fix the scale are not given in the record; negative values are as filed.
Compounds were drawn at random from those tested, without regard to their results.
Two or more numbers in one place are separate tests of the same structure; such repeats can differ widely.
A dash means the value is not listed here; it may have been measured.

SMILES,ClpP1P2,PfKRS1,MtTrpRS,LiHisRS,TcHisRS,Leishmania in macrophages
CC(C)c1noc([C@@H]2Cc3[nH]cnc3CN2C(=O)Nc2ccccc2)n1,1.821,5.59,7.605,11.11,8.911,-3.313
CC1CCN(C[C@H]2CN3CC[C@H]2C[C@@H]3CNC(=O)Nc2ccsc2)CC1,-10.92,-1.602,10.17,11.11,0.9901,-
COc1ccc2nnc(CCC(=O)Nc3nc4c(s3)CCC4)n2n1,19.58,-1.533,-2.524,16.48,10.89,-19.05
CC(C)c1nnc(CN2CCCC(c3cc(C(N)=O)[nH]n3)C2)o1 (stereo not given),-0.7085,-0.2792,19.22,14.29,3.488,-26.16
Cc1nn(C)cc1-c1ccnc(N(C)Cc2ccoc2)n1,-20.34,1.715,-1.49,14.52,4.598,15.7
Cn1cnc2c(N3CCCC3)nc(C3CCN(CC4CC4)CC3)cc21.O=C(O)C(F)(F)F.O=C(O)C(F)(F)F,-,-,-,-,-,31.24
O=C(c1cscn1)N1CCC2(CC1)CCN(S(=O)(=O)c1ccccc1)C2,0.5664,3.988,1.036,15.04,2.151,17.56 and -4.517
O=C(c1ncoc1C1CC1)N1CCCN(CCCc2ccccc2)CC1,-21.38,4.82,-4.385,20.98,20.4,9.022
CCS(=O)(=O)N1CCN(C(C)c2ccccc2OC)CC1 (stereo not given),4.198,0.6574,-4.263,10.34,0.5236,24.84
CN(C)C(=O)c1ccc(-c2cccc3c2CCNC3)cc1,-4.166,2.445,0.1608,26.09,6.931,40.06
COCC(C)NC(=O)c1cn(C(C)C)cc2c(=O)[nH]nc1-2 (stereo not given),-2.77,5.058,1.581,23.91,11,18.45
CC(C)Oc1ccc(CN2CCN3CCN(C)CC3C2)cc1CO (stereo not given),6.361,5.017,0.241,15.07,1.98,12.95
CC(C)COC(C)C(=O)NCCNC(=O)C(C)C (stereo not given),11,2.906,1.489,7.692,7.921,43.81
CN1CCN(Cc2ccco2)Cc2cccnc21,6.79,2.368,-2.889,12.28,1.075,0.2116 and 17.8
N#CC1(C(=O)N2CCCN(Cc3cscn3)CC2)CCCCC1,13.43,-0.6063,-2.656,20,3.509,4.141
CC(C)(Oc1ccc(C(N)=O)cc1)C(=O)N(CCC#N)C1CC1,-5.623,1.093,-,9.901,6.818,16.76
OCc1csc(N2CCCC(COc3cccc(F)c3)C2)n1 (stereo not given),10.82,3.144,5.032,30.85,17.17,0.323
Cc1ncsc1C(=O)N(C)Cc1ccccc1,-3.943,3.275,-4.457,14.29,2.959,15.63
Cc1cc(Nc2cnccn2)cc(C2CCCNC2)n1 (stereo not given),-12.11,0.4931,-6.285,4.027,3.714,-25.49
CCCc1cc(C(=O)N[C@@H]2CCC[C@@H](N3CCCC3)[C@@H]2O)no1,-8.239,1.273,-5.933,12.77,10.08,23.47
Cc1ncsc1CCC(=O)N1CCCC[C@H](N(C)C)C1,-0.9599,1.54,4.762,15.24,-3.306,22.16
COc1ccc(CCNC2CCCN(Cc3noc(C)n3)C2)cc1 (stereo not given),-17.11,2.618,-7.679,16.95,2.857,27.46
CN1CCC(Oc2ccc(NC(=O)c3ccccc3Br)cc2)CC1,-16.61,-3.786,0.08285,10.38,0.8368,33.44
COCCN1CCOCC2(C1)CN(C(=O)c1conc1C)CCO2 (stereo not given),-13.4,4.382,-,23.08,10.61,-
CCC(O)CN1CCN(C(=O)c2ccc3c(c2)COC3)CC1 (stereo not given),-8.172,-0.1579,7.45,-11.86,3.429,-5.684
Cc1ncc(CN(C)C(=O)c2ccc3c(c2O)OC(C)(C)C3)s1,8.714,4.869,-0.0748,17.24,-1.571,-11.06
CN1C(Cn2cccn2)C[C@@H]2CN(Cc3cnn(C)c3)CC[C@@H]21 (stereo not given in full),17.97,3.724,1.187,15.07,7,-
NC(=O)C1CCCN1Cc1cccc(NC(=O)c2cc(Cl)cc(Cl)c2)c1 (stereo not given),11.46,1.372,0.07241,11.61,3.333,12.09
COc1ccc(-c2cn3c(n2)CO[C@@H](CNCc2nccn2C)C3)cc1,-13.19,-6.255,5.842,6.757,-2.174,-9.191
CC(C)(C)OC(=O)NCCC(=O)N(CCC#N)Cc1ccco1,-6.762,2.763,1.729,8,2.41,18.66
c1cc(C2CC2)n2cnc(C3CN(Cc4nccs4)CCO3)c2c1 (stereo not given),-1.627,12.9,-3.128,24.14,25.32,-
Cc1nn(Cn2ccc(C(=O)N3CCCC3)n2)c(C)c1Cl,14.5,3.887,-1.06,17.24,12.37,14.44
COc1cccc(CC2CN(C3CCC3)CCO2)c1 (stereo not given),-27.7,1.412,0.06456,15.29,13,13.91
[H][C@@]12C[C@@H](OC)C[C@]1([H])CN(C(=O)c1ccc(C)s1)C2,-,-,-,-,-,-0.2946
CCN(CC)Cc1cc(=O)n2c(n1)CN(S(=O)(=O)C1CC1)CCC2.O=C(O)C(F)(F)F,-,-,-,-,-,18.24
CN(C)C(=O)N1CCO[C@@H]2CC(COCc3cccnc3)C[C@H]21 (stereo not given in full),8.211,2.719,-,13.21,4.444,-
CC(C)n1nc(Cn2cccc2)c2c1CN(C1CCOCC1)C2,2.776,9.628,-3.427,18.42,9.195,-
CCn1ccnc1CN1CCN(Cc2ccc(C#N)cc2)CC1,9.76,-1.249,-1.101,24.8,-1.901,8.465
Cc1cc(C(C)(O)CNC(=O)CCOCC(C)C)c(C)o1 (stereo not given),-3.295,-0.8802,-2.019,13.79,2.618,7.999
CC(C)n1cnnc1C1CCCN(S(=O)(=O)CC2CCCC2)C1 (stereo not given),-0.1495,0.3802,4.627,9.877,9.202,13.41
O=c1c(-c2ccnc(N3CCCC[C@@H]3CO)n2)cnc2sccn12,7.132,2.916,-,25.71,12.43,6.101 and 18.26
Cc1csc(CN2C[C@H](NC(=O)C3CCOCC3)[C@@H](C(C)C)C2)n1,-14.35,3.985,-1.374,1.266,8.19,-19.66
Cc1nn(C)c2nc(N3CCCC3c3nccs3)sc12 (stereo not given),-10.45,2.819,0.9031,17.05,13.1,4.253
CCCS(=O)(=O)N1CCC2(CC1)CN(c1ccccn1)CCO2.O=C(O)C(F)(F)F,-,-,-,-,-,10.12
[H][C@@]12COC[C@]1(c1nc(C)no1)CN(C(=O)C1CCOCC1)C2,-,-,-,-,-,5.877
OC(CNCCn1cccn1)c1ccc(Br)cc1 (stereo not given),-31.2,-0.8249,16.98,10.34,1.695,6.032
Cc1nn(-c2ncccn2)c2c1C(c1cnn(C)c1C)SCC(=O)N2 (stereo not given),-18.07,4,1.751,18.42,-0.5848,31.17

The first 5 entries again:

For CC(C)c1noc([C@@H]2Cc3[nH]cnc3CN2C(=O)Nc2ccccc2)n1 the result was ClpP1P2: 1.821%; PfKRS1: 5.59%; MtTrpRS: 7.605%; LiHisRS: 11.11%; TcHisRS: 8.911%; Leishmania in macrophages: -3.313%.
For CC1CCN(C[C@H]2CN3CC[C@H]2C[C@@H]3CNC(=O)Nc2ccsc2)CC1 the result was ClpP1P2: -10.92%; PfKRS1: -1.602%; MtTrpRS: 10.17%; LiHisRS: 11.11%; TcHisRS: 0.9901%.
For COc1ccc2nnc(CCC(=O)Nc3nc4c(s3)CCC4)n2n1 the result was ClpP1P2: 19.58%; PfKRS1: -1.533%; MtTrpRS: -2.524%; LiHisRS: 16.48%; TcHisRS: 10.89%; Leishmania in macrophages: -19.05%.
For CC(C)c1nnc(CN2CCCC(c3cc(C(N)=O)[nH]n3)C2)o1 (stereo not given) the result was ClpP1P2: -0.7085%; PfKRS1: -0.2792%; MtTrpRS: 19.22%; LiHisRS: 14.29%; TcHisRS: 3.488%; Leishmania in macrophages: -26.16%.
For Cc1nn(C)cc1-c1ccnc(N(C)Cc2ccoc2)n1 the result was ClpP1P2: -20.34%; PfKRS1: 1.715%; MtTrpRS: -1.49%; LiHisRS: 14.52%; TcHisRS: 4.598%; Leishmania in macrophages: 15.7%.